# Experimental data published in the supplement of paper PMC10849652.
# Sequences of proteins named here, by UniProt entry; tags and fusion partners are left off. A change or cut given only in a name is not applied to a line headed by its entry.
# UniProt Q8WZA9: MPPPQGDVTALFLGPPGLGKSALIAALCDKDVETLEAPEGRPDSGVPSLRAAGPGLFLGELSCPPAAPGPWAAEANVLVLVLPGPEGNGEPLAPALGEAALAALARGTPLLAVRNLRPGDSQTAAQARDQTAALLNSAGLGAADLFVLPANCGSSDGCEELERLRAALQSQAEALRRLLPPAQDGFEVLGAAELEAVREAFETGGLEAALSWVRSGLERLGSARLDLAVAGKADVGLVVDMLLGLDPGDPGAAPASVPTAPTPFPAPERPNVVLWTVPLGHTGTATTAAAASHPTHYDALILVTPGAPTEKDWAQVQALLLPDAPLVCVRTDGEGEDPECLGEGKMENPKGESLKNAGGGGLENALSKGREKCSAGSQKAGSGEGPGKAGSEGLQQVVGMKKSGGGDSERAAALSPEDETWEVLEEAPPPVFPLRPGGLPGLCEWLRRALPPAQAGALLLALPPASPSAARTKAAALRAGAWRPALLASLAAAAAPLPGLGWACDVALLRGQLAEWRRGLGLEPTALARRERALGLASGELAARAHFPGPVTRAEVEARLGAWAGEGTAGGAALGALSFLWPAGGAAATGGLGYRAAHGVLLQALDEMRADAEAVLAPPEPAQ
# UniProt Q9NV31: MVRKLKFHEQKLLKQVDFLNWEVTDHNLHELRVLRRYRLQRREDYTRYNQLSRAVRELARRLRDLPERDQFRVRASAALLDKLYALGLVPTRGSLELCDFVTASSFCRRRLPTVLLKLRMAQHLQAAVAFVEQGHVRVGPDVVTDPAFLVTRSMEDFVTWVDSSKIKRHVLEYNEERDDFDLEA
# UniProt P18084: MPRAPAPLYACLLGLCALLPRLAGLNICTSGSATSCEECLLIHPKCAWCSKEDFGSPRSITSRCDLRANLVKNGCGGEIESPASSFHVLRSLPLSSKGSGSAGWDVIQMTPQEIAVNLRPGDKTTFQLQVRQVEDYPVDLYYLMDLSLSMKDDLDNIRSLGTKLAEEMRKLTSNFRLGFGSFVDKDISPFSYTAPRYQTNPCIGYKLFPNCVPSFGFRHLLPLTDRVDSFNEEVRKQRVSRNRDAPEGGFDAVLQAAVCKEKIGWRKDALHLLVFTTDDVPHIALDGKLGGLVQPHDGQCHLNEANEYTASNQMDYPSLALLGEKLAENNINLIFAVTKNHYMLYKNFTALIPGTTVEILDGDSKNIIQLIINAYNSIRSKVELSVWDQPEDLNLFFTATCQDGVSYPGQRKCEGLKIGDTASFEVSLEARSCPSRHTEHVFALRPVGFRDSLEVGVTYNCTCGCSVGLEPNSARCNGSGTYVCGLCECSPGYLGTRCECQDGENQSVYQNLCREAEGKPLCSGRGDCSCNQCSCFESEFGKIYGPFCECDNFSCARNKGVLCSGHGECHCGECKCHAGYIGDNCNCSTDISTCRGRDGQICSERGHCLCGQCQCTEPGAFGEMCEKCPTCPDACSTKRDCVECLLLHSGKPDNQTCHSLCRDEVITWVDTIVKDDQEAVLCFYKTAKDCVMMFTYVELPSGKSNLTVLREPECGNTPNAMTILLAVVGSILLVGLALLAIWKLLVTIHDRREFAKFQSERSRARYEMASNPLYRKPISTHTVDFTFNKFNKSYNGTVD
# UniProt P0DMQ5: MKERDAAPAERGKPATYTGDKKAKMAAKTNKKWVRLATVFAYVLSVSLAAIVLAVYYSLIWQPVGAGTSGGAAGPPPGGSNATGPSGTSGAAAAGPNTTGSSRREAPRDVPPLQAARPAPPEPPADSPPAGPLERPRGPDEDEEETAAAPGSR
# UniProt P06756, whole entry, looked up: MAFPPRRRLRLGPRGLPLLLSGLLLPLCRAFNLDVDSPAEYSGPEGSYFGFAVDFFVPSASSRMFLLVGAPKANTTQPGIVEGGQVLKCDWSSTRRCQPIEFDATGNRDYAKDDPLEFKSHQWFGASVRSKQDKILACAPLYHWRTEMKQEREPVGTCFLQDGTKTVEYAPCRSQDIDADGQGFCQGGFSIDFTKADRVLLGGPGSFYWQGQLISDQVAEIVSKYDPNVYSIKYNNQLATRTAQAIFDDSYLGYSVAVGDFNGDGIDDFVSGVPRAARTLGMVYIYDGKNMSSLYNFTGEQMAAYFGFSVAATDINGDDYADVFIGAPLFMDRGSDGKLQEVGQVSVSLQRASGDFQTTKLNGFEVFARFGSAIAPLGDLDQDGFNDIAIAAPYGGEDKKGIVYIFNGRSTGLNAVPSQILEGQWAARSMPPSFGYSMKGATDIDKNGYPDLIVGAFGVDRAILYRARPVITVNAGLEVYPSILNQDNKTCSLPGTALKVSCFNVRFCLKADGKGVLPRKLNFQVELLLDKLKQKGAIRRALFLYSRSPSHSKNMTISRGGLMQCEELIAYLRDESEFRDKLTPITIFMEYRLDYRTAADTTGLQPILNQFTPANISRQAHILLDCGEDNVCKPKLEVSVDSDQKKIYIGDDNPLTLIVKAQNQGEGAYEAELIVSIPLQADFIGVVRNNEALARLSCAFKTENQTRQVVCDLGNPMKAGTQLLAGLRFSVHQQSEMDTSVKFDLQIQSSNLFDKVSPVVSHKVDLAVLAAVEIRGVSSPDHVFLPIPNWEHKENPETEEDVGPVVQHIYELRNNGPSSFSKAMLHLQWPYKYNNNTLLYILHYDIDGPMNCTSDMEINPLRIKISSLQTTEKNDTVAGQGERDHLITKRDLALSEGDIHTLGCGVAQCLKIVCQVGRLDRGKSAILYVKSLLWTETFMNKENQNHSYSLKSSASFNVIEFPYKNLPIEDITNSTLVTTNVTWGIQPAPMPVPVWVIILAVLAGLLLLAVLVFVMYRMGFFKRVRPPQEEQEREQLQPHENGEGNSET
# UniProt O15357: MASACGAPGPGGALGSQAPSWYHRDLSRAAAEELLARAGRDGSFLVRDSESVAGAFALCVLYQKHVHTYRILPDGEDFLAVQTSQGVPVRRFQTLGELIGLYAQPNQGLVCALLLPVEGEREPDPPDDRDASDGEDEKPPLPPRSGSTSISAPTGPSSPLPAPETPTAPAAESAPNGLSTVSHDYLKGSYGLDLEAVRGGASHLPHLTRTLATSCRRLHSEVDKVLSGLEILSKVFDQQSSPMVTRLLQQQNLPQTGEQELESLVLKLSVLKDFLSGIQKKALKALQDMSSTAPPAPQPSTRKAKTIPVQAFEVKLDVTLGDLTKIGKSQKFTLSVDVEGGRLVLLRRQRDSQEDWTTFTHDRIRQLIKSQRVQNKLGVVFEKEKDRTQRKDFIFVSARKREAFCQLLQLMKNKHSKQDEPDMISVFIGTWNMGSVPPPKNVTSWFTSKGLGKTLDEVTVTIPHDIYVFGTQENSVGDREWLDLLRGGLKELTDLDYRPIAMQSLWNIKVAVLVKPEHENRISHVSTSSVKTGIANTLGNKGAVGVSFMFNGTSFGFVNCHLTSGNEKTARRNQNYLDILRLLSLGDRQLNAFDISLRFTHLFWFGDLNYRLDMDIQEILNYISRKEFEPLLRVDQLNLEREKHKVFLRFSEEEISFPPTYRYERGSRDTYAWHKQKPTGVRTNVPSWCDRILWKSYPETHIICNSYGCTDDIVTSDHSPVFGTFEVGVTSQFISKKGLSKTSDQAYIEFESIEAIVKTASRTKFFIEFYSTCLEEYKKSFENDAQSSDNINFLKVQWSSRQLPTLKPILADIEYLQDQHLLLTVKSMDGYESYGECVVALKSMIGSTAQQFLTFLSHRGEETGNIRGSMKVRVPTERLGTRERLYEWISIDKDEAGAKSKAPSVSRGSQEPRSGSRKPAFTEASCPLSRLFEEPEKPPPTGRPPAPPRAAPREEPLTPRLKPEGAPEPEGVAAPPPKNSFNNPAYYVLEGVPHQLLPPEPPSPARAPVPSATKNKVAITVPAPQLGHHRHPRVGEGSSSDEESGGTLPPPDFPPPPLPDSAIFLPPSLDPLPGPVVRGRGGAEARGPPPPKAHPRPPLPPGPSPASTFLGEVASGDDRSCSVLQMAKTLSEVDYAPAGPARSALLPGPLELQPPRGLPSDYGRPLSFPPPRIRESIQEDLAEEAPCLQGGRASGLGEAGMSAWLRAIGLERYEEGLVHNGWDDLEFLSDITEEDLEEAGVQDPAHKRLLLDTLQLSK
# UniProt O75054: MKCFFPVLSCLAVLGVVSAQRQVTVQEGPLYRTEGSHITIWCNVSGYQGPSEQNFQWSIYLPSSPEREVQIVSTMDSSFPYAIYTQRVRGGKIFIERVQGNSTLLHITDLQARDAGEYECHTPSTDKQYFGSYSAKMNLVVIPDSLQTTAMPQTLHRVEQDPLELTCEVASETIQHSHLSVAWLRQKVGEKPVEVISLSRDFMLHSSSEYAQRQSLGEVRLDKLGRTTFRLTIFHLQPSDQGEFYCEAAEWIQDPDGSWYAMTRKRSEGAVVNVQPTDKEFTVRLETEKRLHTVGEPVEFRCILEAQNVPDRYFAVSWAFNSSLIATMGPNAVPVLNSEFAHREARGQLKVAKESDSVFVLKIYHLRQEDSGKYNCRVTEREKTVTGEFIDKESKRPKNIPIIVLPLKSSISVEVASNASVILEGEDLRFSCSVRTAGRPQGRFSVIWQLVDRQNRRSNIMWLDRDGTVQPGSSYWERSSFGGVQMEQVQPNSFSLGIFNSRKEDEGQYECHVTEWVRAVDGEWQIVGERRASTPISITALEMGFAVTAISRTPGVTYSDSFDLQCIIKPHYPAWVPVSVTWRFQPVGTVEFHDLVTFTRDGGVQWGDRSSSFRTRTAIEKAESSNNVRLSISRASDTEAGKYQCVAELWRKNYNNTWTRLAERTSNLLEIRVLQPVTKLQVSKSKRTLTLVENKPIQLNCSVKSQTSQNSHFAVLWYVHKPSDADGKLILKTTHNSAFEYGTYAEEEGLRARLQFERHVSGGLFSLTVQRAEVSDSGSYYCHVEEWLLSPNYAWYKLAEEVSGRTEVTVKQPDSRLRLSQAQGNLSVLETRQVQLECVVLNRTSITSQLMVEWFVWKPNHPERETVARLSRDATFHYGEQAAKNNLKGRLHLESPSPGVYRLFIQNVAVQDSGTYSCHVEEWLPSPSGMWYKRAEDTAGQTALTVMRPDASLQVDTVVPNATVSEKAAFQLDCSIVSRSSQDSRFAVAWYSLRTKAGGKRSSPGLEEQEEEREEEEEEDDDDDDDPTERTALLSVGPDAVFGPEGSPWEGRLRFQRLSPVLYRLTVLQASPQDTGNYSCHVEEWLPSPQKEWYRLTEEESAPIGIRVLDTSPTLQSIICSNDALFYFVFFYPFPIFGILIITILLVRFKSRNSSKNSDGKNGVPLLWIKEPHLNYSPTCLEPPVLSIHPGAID
# UniProt Q16891: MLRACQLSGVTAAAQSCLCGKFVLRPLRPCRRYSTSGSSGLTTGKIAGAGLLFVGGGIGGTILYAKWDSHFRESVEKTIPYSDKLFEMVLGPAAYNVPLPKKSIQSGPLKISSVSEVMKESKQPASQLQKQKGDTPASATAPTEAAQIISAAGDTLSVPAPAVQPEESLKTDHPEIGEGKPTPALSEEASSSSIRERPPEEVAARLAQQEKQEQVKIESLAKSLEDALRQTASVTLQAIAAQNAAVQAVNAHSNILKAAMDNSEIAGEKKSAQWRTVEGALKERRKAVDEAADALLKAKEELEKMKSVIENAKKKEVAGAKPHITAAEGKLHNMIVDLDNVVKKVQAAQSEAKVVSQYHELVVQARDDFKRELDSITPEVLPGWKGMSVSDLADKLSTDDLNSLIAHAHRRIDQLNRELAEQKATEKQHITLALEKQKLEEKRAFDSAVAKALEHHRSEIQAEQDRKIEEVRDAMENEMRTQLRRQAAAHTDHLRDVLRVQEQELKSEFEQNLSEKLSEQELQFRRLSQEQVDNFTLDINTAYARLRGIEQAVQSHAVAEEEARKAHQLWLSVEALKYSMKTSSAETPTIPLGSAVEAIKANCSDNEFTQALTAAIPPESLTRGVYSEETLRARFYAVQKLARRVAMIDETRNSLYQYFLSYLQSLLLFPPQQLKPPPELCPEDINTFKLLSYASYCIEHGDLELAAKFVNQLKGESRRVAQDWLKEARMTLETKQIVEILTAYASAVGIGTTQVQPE
# UniProt Q9NPH2: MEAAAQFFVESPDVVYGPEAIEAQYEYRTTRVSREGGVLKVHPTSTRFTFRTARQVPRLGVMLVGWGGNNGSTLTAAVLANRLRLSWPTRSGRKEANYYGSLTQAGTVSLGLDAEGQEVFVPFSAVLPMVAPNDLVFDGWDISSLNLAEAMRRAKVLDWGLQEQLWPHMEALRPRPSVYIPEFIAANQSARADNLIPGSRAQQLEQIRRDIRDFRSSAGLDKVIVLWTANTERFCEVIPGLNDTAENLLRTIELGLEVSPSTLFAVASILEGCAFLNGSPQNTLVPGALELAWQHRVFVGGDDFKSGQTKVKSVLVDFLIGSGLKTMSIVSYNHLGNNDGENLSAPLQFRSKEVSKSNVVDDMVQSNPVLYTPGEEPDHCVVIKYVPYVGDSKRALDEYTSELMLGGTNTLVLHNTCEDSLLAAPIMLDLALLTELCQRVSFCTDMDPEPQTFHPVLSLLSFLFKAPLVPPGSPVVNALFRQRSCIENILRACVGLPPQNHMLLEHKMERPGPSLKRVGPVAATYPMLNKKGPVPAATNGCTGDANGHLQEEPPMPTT
# This is one part of the list.
# How the values were obtained:
# Assay in all cases: log2 fold change, soluble protein after heating vs DMSO (PISA); higher = thermal stabilisation; K562 cells, 10 uM, 30 min; active = over 0.2 and 3.5 SD of the protein, either way, in both replicates (recomputed)
# [1] = compound: CC[C@@H]1C(=O)N(C)c2cnc(Nc3ccc(C(=O)NC4CCN(C)CC4)cc3OC)nc2N1C1CCCC1
# In short: (§1)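 K562 cells (2×10^6 cells/mL) were treated with 10 μM compound for 30 min, and aliquots were heated for 3 min over 48°C-58°C. Pooled aliquots were extracted in PBS with 0.5% NP-40 at 4°C, and the supernatant after 21,000xg for 90 min was measured by TMTpro 16plex LC-MS/MS with channel sums equalised. Reported thermal stability, relative to control samples and from duplicates, is a log2 fold change.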
# volasertib = compound: CC[C@@H]1C(=O)N(C)c2cnc(Nc3ccc(C(=O)N[C@H]4CC[C@H](N5CCN(CC6CC6)CC5)CC4)cc3OC)nc2N1C(C)C [volasertib]
# In short: as §1
# [2] = compound: CC[C@H](C)N1C=C(C2=C(C=C(C=C21)C3=CN=C(C=C3)N4CCNCC4)C(=O)NCC5=C(C=C(NC5=O)C)C)C
# In short: as §1
# epoxomicin = compound: CC[C@H](C)[C@@H](C(=O)N[C@@H]([C@@H](C)O)C(=O)N[C@@H](CC(C)C)C(=O)[C@]1(CO1)C)NC(=O)[C@H]([C@@H](C)CC)N(C)C(=O)C [epoxomicin]
# In short: as §1
# [3] = compound: CCn1c(C(=O)N(C2CC2)C2CC2)cc2c3c(ncn3C)c(Nc3cc(C)n(C)n3)nc21
# In short: as §1
# [4] = compound: CCn1cc(-c2ccnc3[nH]c(-c4cccc(CN(C)C)c4)cc23)c(-c2ccc(NC(=O)N(C)C)cc2)n1
# In short: as §1
# [5] = compound: CN(C)CC(=O)Nc1ccc2[nH]c(=O)c3ccccc3c2c1
# In short: as §1
# rosiglitazone = compound: CN(CCOC1=CC=C(C=C1)C[C@H]2C(=O)NC(=O)S2)C3=CC=CC=N3 (racemic) [rosiglitazone]
# In short: as §1
# [6] = compound: CN1C2=C(C3=C1C(=O)N(N=C3)CC4=CC(=CC=C4)N)SC(=C2)S(=O)C
# In short: as §1
# [7] = compound: CN1CCC(CNc2ccc3ncc(-c4cccc(OC(F)(F)F)c4)n3n2)CC1
# In short: as §1
# saracatinib = compound: CN1CCN(CCOc2cc(OC3CCOCC3)c3c(Nc4c(Cl)ccc5c4OCO5)ncnc3c2)CC1 [saracatinib]
# In short: as §1
# sotrastaurin = compound: CN1CCN(c2nc(C3=C(c4c[nH]c5ccccc45)C(=O)NC3=O)c3ccccc3n2)CC1 [sotrastaurin]
# In short: as §1
# alvocidib = compound: CN1CC[C@H](c2c(O)cc(O)c3c(=O)cc(-c4ccccc4Cl)oc23)[C@H](O)C1 [alvocidib]
# In short: as §1
# Tubastatin A = compound: CN1CCc2c(c3ccccc3n2Cc2ccc(C(=O)NO)cc2)C1 [Tubastatin A]
# In short: as §1
# [8] = compound: CNC(=O)C1=CC=CC=C1NC2=NC(=NC=C2Cl)NC3=C(C=C(C=C3)N4CCOCC4)OC
# In short: as §1
# defactinib = compound: CNC(=O)c1ccc(Nc2ncc(C(F)(F)F)c(NCc3nccnc3N(C)S(C)(=O)=O)n2)cc1 [defactinib]
# In short: as §1
# rucaparib = compound: CNCc1ccc(-c2[nH]c3cc(F)cc4c3c2CCNC4=O)cc1 [rucaparib]
# In short: as §1
# [9] = compound: CNc1nc(-c2ccc3c(N)n[nH]c3c2)cc(N2C[C@@H](C(=O)NC3CCCCC3)CC[C@H]2C)n1
# In short: as §1
# encorafenib = compound: COC(=O)N[C@@H](C)CNc1nccc(-c2cn(C(C)C)nc2-c2cc(Cl)cc(NS(C)(=O)=O)c2F)n1 [encorafenib]
# In short: as §1
# [10] = compound: COC(=O)[C@H](CCSC)NC(=O)C1=C(C=C(C=C1)NC[C@H](CS)N)C2=CC=CC=C2
# In short: as §1
Target,log2 fold change [1],log2 fold change (volasertib),log2 fold change [2],log2 fold change (epoxomicin),log2 fold change [3],log2 fold change [4],log2 fold change [5],log2 fold change (rosiglitazone),log2 fold change [6],log2 fold change [7],log2 fold change (saracatinib),log2 fold change (sotrastaurin),log2 fold change (alvocidib),log2 fold change (Tubastatin A),log2 fold change [8],log2 fold change (defactinib),log2 fold change (rucaparib),log2 fold change [9],log2 fold change (encorafenib),log2 fold change [10]
IRGQ (UniProt Q8WZA9),inactive: 0.027,inactive: 0.021,inactive: 0.023,inactive: 0.066,inactive: -0.008,inactive: -0.057,inactive: 0.008,inactive: 0.043,inactive: -0.009,inactive: 0.058,inactive: 0.033,inactive: -0.075,inactive: -0.055,inactive: 0,inactive: -0.022,inactive: -0.034,inactive: -0.017,inactive: -0.037,inactive: 0.004,inactive: 0.039
IMP3 (UniProt Q9NV31),inactive: 0.06,inactive: 0.156,inactive: -0.202,inactive: 0.053,inactive: -0.263,inactive: -0.203,inactive: -0.05,inactive: 0.036,inactive: 0.224,inactive: 0.008,inactive: 0.062,inactive: -0.224,inactive: 0.039,inactive: 1.39,inactive: -0.293,inactive: -0.213,inactive: -0.204,inactive: 0.129,inactive: -0.23,inactive: -0.152
ILVBL (UniProt A1L0T0),inactive: 0.049,inactive: 0.069,inactive: -0.034,inactive: 0.069,,inactive: 0.042,inactive: 0.036,,inactive: -0.068,inactive: 0.019,inactive: -0.022,inactive: 0.135,,inactive: -0.02,inactive: 0.002,inactive: -0.054,inactive: -0.024,inactive: 0.052,inactive: 0.059,inactive: 0.019
IQGAP2 (UniProt Q13576),inactive: -0.028,inactive: -0.582,inactive: 0.164,inactive: 0.009,inactive: -0.168,inactive: -0.13,inactive: 0.078,inactive: 0.032,inactive: 0.093,inactive: -0.205,inactive: -0.168,inactive: -0.141,inactive: -0.139,inactive: 0.17,inactive: -0.123,inactive: -0.162,inactive: 0.088,inactive: 0.086,inactive: 0.16,inactive: -0.165
ITGB5 (UniProt P18084),inactive: 0.022,inactive: -0.072,inactive: -0.039,inactive: 0.03,inactive: -0.003,inactive: -0.112,inactive: 0.111,inactive: -0.036,inactive: 0.007,inactive: 0.102,inactive: 0.038,inactive: -0.021,inactive: -0.096,inactive: -0.053,inactive: 0.103,inactive: -0.165,inactive: -0.027,inactive: -0.043,inactive: -0.005,inactive: 0.004
ITPKA (UniProt P23677),inactive: 0.065,inactive: -0.144,inactive: -0.441,inactive: -0.085,inactive: -0.213,inactive: -0.216,inactive: 0.032,inactive: 0.253,inactive: 0.138,inactive: 0.033,inactive: -0.093,inactive: -0.024,,inactive: 0.081,inactive: -0.534,inactive: -0.027,inactive: 0.196,inactive: 0.012,inactive: -0.066,inactive: -0.161
ITIH2 (UniProt P19823),inactive: 0,inactive: 0.107,inactive: -0.121,inactive: -0.489,inactive: 0.04,inactive: 0,inactive: -0.072,inactive: -0.012,inactive: 0.301,inactive: 0.077,inactive: 0.363,inactive: 0.33,inactive: 0.076,inactive: -0.101,inactive: 0.15,inactive: -0.112,inactive: -0.233,inactive: 0.032,inactive: -0.023,inactive: 0.17
INAFM2 (UniProt P0DMQ5),inactive: -0.04,inactive: 0.077,inactive: -0.088,inactive: -0.038,inactive: 0.024,,,inactive: -0.037,,,,inactive: 0.011,inactive: -0.028,inactive: 0.075,inactive: -0.068,,inactive: 0.047,,inactive: -0.046,
ITGAV (UniProt P06756),inactive: -0.077,inactive: -0.107,inactive: -0.033,inactive: 0.01,inactive: -0.013,inactive: -0.004,inactive: -0.019,inactive: 0.015,inactive: -0.006,inactive: -0.068,inactive: 0.059,inactive: 0.053,inactive: 0.031,inactive: -0.005,inactive: -0.02,inactive: -0.009,inactive: 0.03,inactive: -0.031,inactive: 0.029,inactive: 0.008
IGFBP2 (UniProt P18065),inactive: -0.319,inactive: -0.614,inactive: -0.167,inactive: -0.707,,inactive: 0.158,inactive: 0.003,,inactive: 0.323,inactive: -0.638,inactive: -0.049,inactive: 0.223,,inactive: -0.032,inactive: -0.06,inactive: 0.134,inactive: 0.003,inactive: -0.148,inactive: 0.028,inactive: -0.053
ITIH3 (UniProt Q06033),inactive: 0.037,inactive: 0.215,inactive: -0.064,inactive: -0.17,inactive: 0.06,inactive: 0.03,inactive: -0.18,inactive: 0.076,inactive: 0.291,inactive: 0.233,inactive: 0.276,inactive: 0.325,inactive: 0.093,inactive: -0.119,inactive: 0.054,inactive: -0.01,inactive: -0.167,inactive: 0.058,inactive: -0.042,inactive: 0.171
IGBP1 (UniProt P78318),inactive: -0.044,inactive: -0.123,inactive: 0.025,inactive: 0.031,inactive: 0.027,inactive: -0.034,inactive: -0.017,inactive: 0.09,inactive: -0.027,inactive: -0.118,inactive: -0.069,inactive: -0.05,inactive: -0.026,inactive: 0.012,inactive: -0.023,inactive: -0.008,inactive: -0.061,inactive: -0.025,inactive: 0.073,inactive: 0.049
INPPL1 (UniProt O15357),inactive: -0.002,inactive: -0.106,inactive: -0.027,inactive: -0.074,inactive: 0.065,inactive: -0.062,inactive: 0.182,inactive: 0.057,inactive: 0.128,inactive: 0.092,inactive: -0.133,inactive: -0.141,inactive: -0.104,inactive: -0.005,inactive: 0.041,inactive: -0.035,inactive: 0.082,inactive: 0.022,inactive: 0.031,inactive: -0.072
INTS10 (UniProt Q9NVR2),inactive: -0.143,inactive: -0.206,inactive: 0.023,inactive: 0.048,inactive: -0.04,inactive: -0.036,inactive: 0.09,inactive: 0.049,inactive: 0,inactive: -0.086,inactive: 0.019,inactive: -0.04,inactive: -0.055,inactive: 0.08,inactive: 0,inactive: -0.196,inactive: 0.011,inactive: -0.08,inactive: 0.066,inactive: -0.069
IGSF3 (UniProt O75054),inactive: 0.034,inactive: -0.021,inactive: -0.027,inactive: -0.009,inactive: -0.004,inactive: 0.003,inactive: 0.101,inactive: 0.03,inactive: -0.092,inactive: 0.141,inactive: -0.003,inactive: 0.049,inactive: -0.015,inactive: -0.027,inactive: -0.035,inactive: -0.009,inactive: -0.112,inactive: 0.003,inactive: 0.008,inactive: 0.014
IMMT isoform 4 (UniProt Q16891),inactive: -0.131,inactive: -0.099,inactive: 0.013,inactive: 0.035,,inactive: -0.004,inactive: 0.002,,inactive: -0.047,active: -0.325,inactive: -0.012,inactive: -0.002,,inactive: -0.033,inactive: -0.014,inactive: -0.012,inactive: -0.055,inactive: -0.007,inactive: 0.012,inactive: 0.002
ISYNA1 (UniProt Q9NPH2),inactive: -0.021,inactive: 0.02,inactive: 0.106,inactive: -0.025,inactive: -0.055,inactive: 0.049,inactive: 0.031,inactive: 0.018,inactive: -0.024,inactive: 0.003,inactive: 0.039,inactive: 0.021,inactive: -0.075,inactive: 0,inactive: -0.013,inactive: 0.004,inactive: -0.075,inactive: -0.008,inactive: 0.066,inactive: -0.015

# An excerpt from above, reduced to log2 fold change (alvocidib) and log2 fold change [6]:
Target | log2 fold change (alvocidib) | log2 fold change [6]
ITIH2 (UniProt P19823) | inactive: 0.076 | inactive: 0.301
INAFM2 (UniProt P0DMQ5) | inactive: -0.028 | 
